Results deposited as PubChem BioAssay AID1259327 (Drosophila RNAi Screening Center, 2017).

Test: 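Knock-downs altering cellular ATP with no metal added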
Cells: Drosophila S2R+ cells
Reagent: long dsRNA against Drosophila genes
Duration: 5 days (water added on day 4, read one day later)
Conditions: water added as vehicle, no metal, one day before read-out
Measured: 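Total ATP measured by luciferase light, scaled to plate mean, duplicates averaged, then z-scored across plates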
Reading the numbers: ATP z-score: higher = more total ATP than typical wells; ATP luminescence: higher = more total ATP
Hit rule: 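Called active when the ATP z-score exceeds 1.5 or falls below -1.5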
Meaning of the calls: active = hit: ATP up or down; inactive = no clear ATP change
The whole screen tested about 3,100 reagents; shown is a random part of them. 378 of all reagents (12%) count as active. 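Hits include both directions; z-score sign shows ATP rise or fall; raw luminescence values are not plate-normalised.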 Entries without a mark were called inactive. A plus sign joins genes that one reagent is predicted to hit. Not given: the amount of reagent.

Prestin [DRSC10507] showed ATP z-score, duplicate mean 0.000146; ATP luminescence, replicate 1 (RLU) = 9.47e5; ATP luminescence, replicate 2 (RLU) = 8.47e5.
Against Or85f [DRSC16769], the entry reads ATP z-score, duplicate mean -0.524; ATP luminescence, replicate 1 (RLU) = 2.72e5; ATP luminescence, replicate 2 (RLU) = 7.13e5.
For Or85f [DRSC39742], the entry reads ATP z-score, duplicate mean -0.554; ATP luminescence, replicate 1 (RLU) = 3.92e5; ATP luminescence, replicate 2 (RLU) = 4.64e5.
With knock-down of Tsp42Ef [DRSC06191], the record shows ATP z-score, duplicate mean 0.711; ATP luminescence, replicate 1 (RLU) = 6.99e5; ATP luminescence, replicate 2 (RLU) = 6.69e5.
CG6938 [DRSC10752] showed ATP z-score, duplicate mean 0.0223; ATP luminescence, replicate 1 (RLU) = 9.19e5; ATP luminescence, replicate 2 (RLU) = 8.79e5.
After knock-down of CG6938 [DRSC28621], the screen gave ATP z-score, duplicate mean -0.695; ATP luminescence, replicate 1 (RLU) = 8.04e5; ATP luminescence, replicate 2 (RLU) = 6.80e5.
Depletion of CG13077 [DRSC02181] gave: ATP z-score, duplicate mean -0.972; ATP luminescence, replicate 1 (RLU) = 6.24e5; ATP luminescence, replicate 2 (RLU) = 6.22e5.
After knock-down of CG13077 [DRSC39515], the screen gave ATP z-score, duplicate mean -0.00946; ATP luminescence, replicate 1 (RLU) = 5.12e5; ATP luminescence, replicate 2 (RLU) = 3.96e5.

Laid out differently: 2 of the entries above.
predicted target | dsRNA | ATP z-score, duplicate mean | ATP luminescence, replicate 1 (RLU) | ATP luminescence, replicate 2 (RLU)
Or85f | DRSC39742 | -0.554 | 3.92e5 | 4.64e5
Tsp42Ef | DRSC06191 | 0.711 | 6.99e5 | 6.69e5

More entries:
For CG33310 [DRSC01897], the values are ATP z-score, duplicate mean -0.366; ATP luminescence, replicate 1 (RLU) = 6.84e5; ATP luminescence, replicate 2 (RLU) = 6.90e5.
CG33310 [DRSC24914] scored ATP z-score, duplicate mean 0.635; ATP luminescence, replicate 1 (RLU) = 9.13e5; ATP luminescence, replicate 2 (RLU) = 8.86e5.
Against Pis [DRSC20178], the values are ATP z-score, duplicate mean 2.04 (active); ATP luminescence, replicate 1 (RLU) = 8.31e5; ATP luminescence, replicate 2 (RLU) = 9.70e5.
Pis [DRSC29976] scored ATP z-score, duplicate mean -0.65; ATP luminescence, replicate 1 (RLU) = 4.85e5; ATP luminescence, replicate 2 (RLU) = 5.65e5.
CG31262 [DRSC13216] scored ATP z-score, duplicate mean -1.65 (active); ATP luminescence, replicate 1 (RLU) = 1.98e5; ATP luminescence, replicate 2 (RLU) = 6.52e5.
Against CG31262 [DRSC39797], the entry reads ATP z-score, duplicate mean -1.23; ATP luminescence, replicate 1 (RLU) = 4.03e5; ATP luminescence, replicate 2 (RLU) = 3.82e5.
CG4991 [DRSC19928] gave ATP z-score, duplicate mean 0.188; ATP luminescence, replicate 1 (RLU) = 7.58e5; ATP luminescence, replicate 2 (RLU) = 6.93e5.
Against CG4991 [DRSC39735], the entry reads ATP z-score, duplicate mean 0.422; ATP luminescence, replicate 1 (RLU) = 5.62e5; ATP luminescence, replicate 2 (RLU) = 4.23e5.
With knock-down of Or85d [DRSC16767], the record shows ATP z-score, duplicate mean -0.241; ATP luminescence, replicate 1 (RLU) = 2.62e5; ATP luminescence, replicate 2 (RLU) = 8.03e5.
Or85d [DRSC26656] gave ATP z-score, duplicate mean 2.72 (active); ATP luminescence, replicate 1 (RLU) = 9.07e5; ATP luminescence, replicate 2 (RLU) = 1.04e6.
Knock-down of CG31904 + CG13796 [DRSC22161] gave: ATP z-score, duplicate mean -0.352; ATP luminescence, replicate 1 (RLU) = 5.43e5; ATP luminescence, replicate 2 (RLU) = 5.78e5.
Depletion of 5-HT1B [DRSC05031] came out at: ATP z-score, duplicate mean -0.517; ATP luminescence, replicate 1 (RLU) = 5.74e5; ATP luminescence, replicate 2 (RLU) = 5.72e5.
For 5-HT1B [DRSC25996], the entry reads ATP z-score, duplicate mean 0.562; ATP luminescence, replicate 1 (RLU) = 9.45e5; ATP luminescence, replicate 2 (RLU) = 8.95e5.
Surf4 [DRSC16875] scored ATP z-score, duplicate mean -0.188; ATP luminescence, replicate 1 (RLU) = 3.09e5; ATP luminescence, replicate 2 (RLU) = 6.96e5.
Depletion of Surf4 [DRSC39877] resulted in: ATP z-score, duplicate mean -2.01 (active); ATP luminescence, replicate 1 (RLU) = 4.69e5; ATP luminescence, replicate 2 (RLU) = 3.50e5.
With knock-down of Ir31a [DRSC22358], the record shows ATP z-score, duplicate mean -0.61; ATP luminescence, replicate 1 (RLU) = 7.53e5; ATP luminescence, replicate 2 (RLU) = 7.96e5.
